# The list shows a part of the results.
# B1: Mincle (Bos taurus) (protein)
# chain: MNSSTSPASQTERRCFSFQLFSWAIAGTSILLLSACFITRCVVTYSIFQLCDEKKFQPPGDSMELSCYNDGSGSVKNCCPLKWFHFQSSCYLFSPDTMSWRASLKNCSSMGAHLVVINTQEEQEFLYYTKPRKKEFYIGLTDQVTEGQWQWVDGTPFTKSLSFWDAGEPNNLVIVEDCATIRDSSNPRQNWNDVPCFFNMFRVCEMPERKI
# Tests used:
# Experiment in all cases: glycan array binding signal (z-score within array); higher = stronger binding
# Settings in all cases: glycan notation: IUPAC condensed, linker removed
# [1] = molecular target: GlcNAc(b1-3)Gal(b1-4)GlcNAc(b1-3)Gal(b1-4)GlcNAc(b1-3)GalNAc
# Outline: (§1)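 Columns mapping to the same glycan were averaged after glycan names were converted to IUPAC-condensed notation. The data come from 3228 arrays in the Consortium for Functional Glycomics database, limited to those with an available protein sequence. Binding is reported as a within-array Z-score averaged across arrays of one protein sequence and across linkers.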
# [2] = molecular target: GlcNAc(b1-3)Gal(b1-4)GlcNAc(b1-3)GalNAc
# Outline: as §1
# [3] = molecular target: GlcNAc(b1-3)Gal(b1-4)GlcNAc(b1-3)[GlcNAc(b1-3)Gal(b1-4)GlcNAc(b1-3)]GalNAc
# Outline: as §1
# [4] = molecular target: GlcNAc(b1-3)Gal(b1-4)GlcNAc(b1-6)[Gal(b1-3)]GalNAc
# Outline: as §1
# [5] = molecular target: GlcNAc(b1-3)Gal(b1-4)GlcNAc(b1-6)[GlcNAc(b1-3)Gal(b1-3)]GalNAc
# Outline: as §1
# [6] = molecular target: GlcNAc(b1-3)Gal(b1-4)GlcNAc(b1-6)[GlcNAc(b1-3)]Gal(b1-4)GlcNAc
# Outline: as §1
# [7] = molecular target: GlcNAc(b1-3)GalNAc
# Outline: as §1
# [8] = molecular target: GlcNAc(b1-3)Man
# Outline: as §1
# [9] = molecular target: GlcNAc(b1-3)[GlcNAc(b1-4)][GlcNAc(b1-6)]GlcNAc
# Outline: as §1
# [10] = molecular target: GlcNAc(b1-3)[GlcNAc(b1-6)]Gal(b1-4)GlcNAc
# Outline: as §1
# [11] = molecular target: GlcNAc(b1-3)[GlcNAc(b1-6)]GalNAc
# Outline: as §1
# [12] = molecular target: GlcNAc(b1-4)Gal(b1-4)GlcNAc
# Outline: as §1
# [13] = molecular target: GlcNAc(b1-4)GlcNAc
# Outline: as §1
# [14] = molecular target: GlcNAc(b1-4)GlcNAc(b1-4)GlcNAc
# Outline: as §1
# [15] = molecular target: GlcNAc(b1-4)GlcNAc(b1-4)GlcNAc(b1-4)GlcNAc(b1-4)GlcNAc
# Outline: as §1
# [16] = molecular target: GlcNAc(b1-4)GlcNAc(b1-4)GlcNAc(b1-4)GlcNAc(b1-4)GlcNAc(b1-4)GlcNAc
# Outline: as §1
# [17] = molecular target: GlcNAc(b1-4)[GlcNAc(b1-6)]GalNAc
# Outline: as §1
# [18] = molecular target: GlcNAc(b1-6)Gal(b1-4)GlcNAc
# Outline: as §1
# [19] = molecular target: GlcNAc(b1-6)GalNAc
# Outline: as §1
# [20] = molecular target: GlcNAc6S(b1-3)Gal(b1-4)GlcNAc
# Outline: as §1
# [21] = molecular target: Kdn(a2-3)Gal(b1-3)GalNAc
# Outline: as §1
# [22] = molecular target: Kdn(a2-3)Gal(b1-3)GlcNAc
# Outline: as §1
# [23] = molecular target: Kdn(a2-3)Gal(b1-4)Glc
# Outline: as §1
# [24] = molecular target: Kdn(a2-3)Gal(b1-4)GlcNAc
# Outline: as §1
# [25] = molecular target: Kdn(a2-3)Gal(b1-4)[Fuc(a1-3)]GlcNAc
# Outline: as §1
# [26] = molecular target: Kdn(a2-6)Gal(b1-4)GlcNAc
# Outline: as §1
# [27] = molecular target: Man(a1-2)Man(a1-2)Man(a1-3)Man
# Outline: as §1
# [28] = molecular target: Man(a1-2)Man(a1-2)Man(a1-6)[Man(a1-3)]Man
# Outline: as §1
# [29] = molecular target: Man(a1-2)Man(a1-3)Man
# Outline: as §1
# [30] = molecular target: Man(a1-2)Man(a1-3)[Man(a1-2)Man(a1-6)]Man
# Outline: as §1
# [31] = molecular target: Man(a1-2)Man(a1-3)[Man(a1-2)Man(a1-6)]Man(a1-6)[Man(a1-2)Man(a1-2)Man(a1-3)]Man
# Outline: as §1
# [32] = molecular target: Man(a1-2)Man(a1-3)[Man(a1-2)Man(a1-6)]Man(a1-6)[Man(a1-2)Man(a1-2)Man(a1-3)]Man(b1-4)GlcNAc(b1-4)GlcNAc
# Outline: as §1
# [33] = molecular target: Man(a1-2)Man(a1-3)[Man(a1-6)]Man(a1-6)[Man(a1-2)Man(a1-3)]Man(b1-4)GlcNAc(b1-4)GlcNAc
# Outline: as §1
# [34] = molecular target: Man(a1-2)Man(a1-6)[Man(a1-3)]Man(a1-6)[Man(a1-2)Man(a1-2)Man(a1-3)]Man
# Outline: as §1
# [35] = molecular target: Man(a1-2)Man(a1-6)[Man(a1-3)]Man(a1-6)[Man(a1-2)Man(a1-2)Man(a1-3)]Man(b1-4)GlcNAc(b1-4)GlcNAc
# Outline: as §1
# [36] = molecular target: Man(a1-3)[Man(a1-6)]Man
# Outline: as §1
# [37] = molecular target: Man(a1-3)[Man(a1-6)]Man(a1-6)[Man(a1-2)Man(a1-3)]Man(b1-4)GlcNAc(b1-4)GlcNAc
# Outline: as §1
# [38] = molecular target: Man(a1-3)[Man(a1-6)]Man(a1-6)[Man(a1-3)]Man
# Outline: as §1
# [39] = molecular target: Man(a1-3)[Man(a1-6)]Man(a1-6)[Man(a1-3)]Man(b1-4)GlcNAc(b1-4)GlcNAc
# Outline: as §1
# [40] = molecular target: Man(a1-3)[Man(a1-6)]Man(b1-4)GlcNAc(b1-4)GlcNAc
# Outline: as §1
# [41] = molecular target: Man(a1-3)[Man(a1-6)]Man(b1-4)GlcNAc(b1-4)[Fuc(a1-6)]GlcNAc
# Outline: as §1
# [42] = molecular target: Man(a1-6)Man
# Outline: as §1
# [43] = molecular target: Man(b1-4)GlcNAc
# Outline: as §1
# [44] = molecular target: MurNAc(b1-4)GlcNAc
# Outline: as §1
# [45] = molecular target: Neu5Ac(a2-3)Gal
# Outline: as §1
binder,measurement,setting,value
B1,glycan array binding signal (z-score),[1],0.106
same,glycan array binding signal (z-score),[2],-0.297
same,glycan array binding signal (z-score),[3],0.084
same,glycan array binding signal (z-score),[4],-0.985
same,glycan array binding signal (z-score),[5],-0.472
same,glycan array binding signal (z-score),[6],0.307
same,glycan array binding signal (z-score),[7],-0.313
same,glycan array binding signal (z-score),[8],-0.182
same,glycan array binding signal (z-score),[9],5.17
same,glycan array binding signal (z-score),[10],0.574
same,glycan array binding signal (z-score),[11],0.888
same,glycan array binding signal (z-score),[12],0.508
same,glycan array binding signal (z-score),[13],0.05
same,glycan array binding signal (z-score),[14],-0.899
same,glycan array binding signal (z-score),[15],-0.226
same,glycan array binding signal (z-score),[16],-0.478
same,glycan array binding signal (z-score),[17],0.173
same,glycan array binding signal (z-score),[18],0.257
same,glycan array binding signal (z-score),[19],0.469
same,glycan array binding signal (z-score),[20],0.032
same,glycan array binding signal (z-score),[21],0.487
same,glycan array binding signal (z-score),[22],0.033
same,glycan array binding signal (z-score),[23],-1.1
same,glycan array binding signal (z-score),[24],-0.052
same,glycan array binding signal (z-score),[25],-0.508
same,glycan array binding signal (z-score),[26],-0.599
same,glycan array binding signal (z-score),[27],6.56
same,glycan array binding signal (z-score),[28],4.79
same,glycan array binding signal (z-score),[29],3.01
same,glycan array binding signal (z-score),[30],7.29
same,glycan array binding signal (z-score),[31],3.54
same,glycan array binding signal (z-score),[32],1.2
same,glycan array binding signal (z-score),[33],0.275
same,glycan array binding signal (z-score),[34],1.94
same,glycan array binding signal (z-score),[35],0.474
same,glycan array binding signal (z-score),[36],6.16
same,glycan array binding signal (z-score),[37],3.43
same,glycan array binding signal (z-score),[38],1.04
same,glycan array binding signal (z-score),[39],0.124
same,glycan array binding signal (z-score),[40],-0.164
same,glycan array binding signal (z-score),[41],0.039
same,glycan array binding signal (z-score),[42],-0.842
same,glycan array binding signal (z-score),[43],0.338
same,glycan array binding signal (z-score),[44],-0.541
same,glycan array binding signal (z-score),[45],-1.05

# A second format for some results above:
binder | measurement | setting | value
B1 | glycan array binding signal (z-score) | [6] | 0.307
same | glycan array binding signal (z-score) | [10] | 0.574
same | glycan array binding signal (z-score) | [11] | 0.888
same | glycan array binding signal (z-score) | [17] | 0.173
same | glycan array binding signal (z-score) | [23] | -1.1
same | glycan array binding signal (z-score) | [24] | -0.052
same | glycan array binding signal (z-score) | [25] | -0.508
same | glycan array binding signal (z-score) | [30] | 7.29

# From the supplement of paper PMC8728848
